Laboratory results: PubChem BioAssay AID1259254 (NCATS, 2017)

Test: 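Gene knock-downs that lead to re-replication, shown by excess G2 DNA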 (primary screen)
System: human HCT116 colorectal cancer cells
Reagent: single siRNA against human genes
Time to read-out: 3 days
Read-out: 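Imaged Hoechst DNA stain sorts each cell into a cycle phase by DNA amount; per plate, G2 fraction set to 0% for non-targeting and 100% for GMNN siRNA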
Direction: G2 robust z-score and G2 cells, % of GMNN control: higher = more G2 cells, more excess DNA replication
Active means: 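Active siRNAs have a G2 robust z of 5 or more median absolute deviations over the median, which in these data means about 38% or higher of GMNN control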
In all, the deposit lists about 59,000 reagents; this is a random part of them. About 1,550 of them (2.6%) count as active. 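G2 share is only a proxy for re-replication; each gene was hit by three separate siRNAs, and active genes were retested.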 The numbers tell different reagents against one gene apart. Not all columns of the deposit are shown. Reagent sequences are not shown. The record does not give: the amount of reagent.

{"gene":"XAGE1B (GeneID 653067)","siRNA no.":1,"G2 robust z-score":0.68,"G2 cells, % of GMNN control":7.75,"Call":"inactive"}
{"gene":"XAGE1B (GeneID 653067)","siRNA no.":2,"G2 robust z-score":-0.348,"G2 cells, % of GMNN control":0.516,"Call":"inactive"}
{"gene":"XAGE1B (GeneID 653067)","siRNA no.":3,"G2 robust z-score":-0.498,"G2 cells, % of GMNN control":-0.534,"Call":"inactive"}
{"gene":"EPS8L3 (GeneID 79574)","siRNA no.":1,"G2 robust z-score":-0.814,"G2 cells, % of GMNN control":-2.76,"Call":"inactive"}
{"gene":"EPS8L3 (GeneID 79574)","siRNA no.":2,"G2 robust z-score":-0.607,"G2 cells, % of GMNN control":-1.3,"Call":"inactive"}
{"gene":"EPS8L3 (GeneID 79574)","siRNA no.":3,"G2 robust z-score":0.556,"G2 cells, % of GMNN control":6.88,"Call":"inactive"}
{"gene":"ITGB5 (GeneID 3693)","siRNA no.":1,"G2 robust z-score":15.1,"G2 cells, % of GMNN control":109,"Call":"active"}
{"gene":"ITGB5 (GeneID 3693)","siRNA no.":2,"G2 robust z-score":17.2,"G2 cells, % of GMNN control":124,"Call":"active"}
{"gene":"ITGB5 (GeneID 3693)","siRNA no.":3,"G2 robust z-score":10.4,"G2 cells, % of GMNN control":76.4,"Call":"active"}

The list goes on; the last 2 above are carried over.
{"gene":"ITGB5 (GeneID 3693)","siRNA no.":2,"G2 robust z-score":17.2,"G2 cells, % of GMNN control":124,"Call":"active"}
{"gene":"ITGB5 (GeneID 3693)","siRNA no.":3,"G2 robust z-score":10.4,"G2 cells, % of GMNN control":76.4,"Call":"active"}
{"gene":"PLEKHH3 (GeneID 79990)","siRNA no.":1,"G2 robust z-score":1.4,"G2 cells, % of GMNN control":12.8,"Call":"inactive"}
{"gene":"PLEKHH3 (GeneID 79990)","siRNA no.":2,"G2 robust z-score":0.0632,"G2 cells, % of GMNN control":3.41,"Call":"inactive"}
{"gene":"PLEKHH3 (GeneID 79990)","siRNA no.":3,"G2 robust z-score":-0.787,"G2 cells, % of GMNN control":-2.57,"Call":"inactive"}
{"gene":"CAMSAP1 (GeneID 157922)","siRNA no.":1,"G2 robust z-score":1.02,"G2 cells, % of GMNN control":10.1,"Call":"inactive"}
{"gene":"CAMSAP1 (GeneID 157922)","siRNA no.":2,"G2 robust z-score":-0.0867,"G2 cells, % of GMNN control":2.36,"Call":"inactive"}
{"gene":"CAMSAP1 (GeneID 157922)","siRNA no.":3,"G2 robust z-score":0.145,"G2 cells, % of GMNN control":3.99,"Call":"inactive"}
{"gene":"MOB3C (GeneID 148932)","siRNA no.":1,"G2 robust z-score":0.284,"G2 cells, % of GMNN control":4.97,"Call":"inactive"}
{"gene":"MOB3C (GeneID 148932)","siRNA no.":2,"G2 robust z-score":-0.93,"G2 cells, % of GMNN control":-3.58,"Call":"inactive"}
{"gene":"MOB3C (GeneID 148932)","siRNA no.":3,"G2 robust z-score":3.96,"G2 cells, % of GMNN control":30.9,"Call":"inactive"}
